Measurements published in patent US20100221398A1, “PRESERVATIVE” (priority 2007, published 2010).
The name of at least one read-out is uncertain.

Test system: Aspergillus niger strain N402 conidiospores
Test: Spoilage of synthetic soft drink (ACM pH 4.0) with 300 ppm sorbic acid
Type: cell-based
Settings: ACM pH 4.0 + 300 ppm sorbic acid, 1000 conidiospores/ml A. niger N402, 28 days at 28 C, triplicate

Q: Which “concentration that in combination with 300 ppm sorbic acid prevents spoilage of the synthetic soft drink” value does the source give for CCCCC=CC=O [2-Heptenal] here?
A: The value was 11 ppm.
